# Reference: paper PMC7948462
# The chains behind the UniProt entries cited, without tags or fusion partners. Where a name states a change or a piece, a line headed by the entry shows the natural chain unless it says otherwise. A line that says so, or that is headed by a name, gives the form on record, which may keep a tag or linker.
# UniProt P46940: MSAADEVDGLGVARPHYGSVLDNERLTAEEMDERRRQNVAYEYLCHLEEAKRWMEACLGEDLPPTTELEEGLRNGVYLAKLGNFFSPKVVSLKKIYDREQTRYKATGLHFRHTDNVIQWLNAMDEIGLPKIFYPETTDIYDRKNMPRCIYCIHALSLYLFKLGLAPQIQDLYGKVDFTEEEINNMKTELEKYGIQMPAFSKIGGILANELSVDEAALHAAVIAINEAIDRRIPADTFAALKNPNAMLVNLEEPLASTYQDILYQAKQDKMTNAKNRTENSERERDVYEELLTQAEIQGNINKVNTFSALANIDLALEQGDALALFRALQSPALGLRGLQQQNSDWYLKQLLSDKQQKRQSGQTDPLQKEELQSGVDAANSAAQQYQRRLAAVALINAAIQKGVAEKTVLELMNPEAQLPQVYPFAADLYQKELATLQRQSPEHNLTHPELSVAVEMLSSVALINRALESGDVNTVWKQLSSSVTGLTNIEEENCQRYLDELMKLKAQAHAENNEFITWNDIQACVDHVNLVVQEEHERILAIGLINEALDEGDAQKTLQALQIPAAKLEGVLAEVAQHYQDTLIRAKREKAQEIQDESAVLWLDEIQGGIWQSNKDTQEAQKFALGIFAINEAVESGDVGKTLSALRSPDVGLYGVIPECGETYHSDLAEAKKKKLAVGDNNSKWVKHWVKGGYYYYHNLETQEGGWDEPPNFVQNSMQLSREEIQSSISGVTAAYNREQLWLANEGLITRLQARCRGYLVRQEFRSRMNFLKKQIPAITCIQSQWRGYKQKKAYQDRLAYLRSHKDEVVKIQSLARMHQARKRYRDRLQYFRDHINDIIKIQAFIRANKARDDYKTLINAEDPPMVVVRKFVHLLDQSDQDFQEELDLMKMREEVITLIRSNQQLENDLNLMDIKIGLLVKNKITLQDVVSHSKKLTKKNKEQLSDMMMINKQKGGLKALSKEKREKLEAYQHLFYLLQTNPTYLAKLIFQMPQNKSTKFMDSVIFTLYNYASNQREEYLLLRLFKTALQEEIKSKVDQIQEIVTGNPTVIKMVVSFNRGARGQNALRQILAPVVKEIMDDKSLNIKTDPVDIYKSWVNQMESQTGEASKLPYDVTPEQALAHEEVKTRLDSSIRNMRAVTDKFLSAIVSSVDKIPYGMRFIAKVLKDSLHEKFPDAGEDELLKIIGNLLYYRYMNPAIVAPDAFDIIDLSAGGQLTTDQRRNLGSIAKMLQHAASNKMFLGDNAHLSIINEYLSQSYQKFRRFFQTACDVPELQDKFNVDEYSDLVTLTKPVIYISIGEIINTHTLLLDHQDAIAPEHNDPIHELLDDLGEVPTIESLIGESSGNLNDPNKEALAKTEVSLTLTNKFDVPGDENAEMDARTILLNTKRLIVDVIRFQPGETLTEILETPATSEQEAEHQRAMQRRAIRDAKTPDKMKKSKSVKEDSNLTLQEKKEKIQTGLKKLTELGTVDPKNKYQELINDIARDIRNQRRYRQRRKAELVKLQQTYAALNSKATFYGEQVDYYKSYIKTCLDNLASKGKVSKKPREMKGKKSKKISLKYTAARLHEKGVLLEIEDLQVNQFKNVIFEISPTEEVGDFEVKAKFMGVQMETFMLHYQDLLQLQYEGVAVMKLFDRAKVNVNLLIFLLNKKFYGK
# IQGAP1Δ746-860, biotinylated-lysine-labelled TNT product (P46940, form named): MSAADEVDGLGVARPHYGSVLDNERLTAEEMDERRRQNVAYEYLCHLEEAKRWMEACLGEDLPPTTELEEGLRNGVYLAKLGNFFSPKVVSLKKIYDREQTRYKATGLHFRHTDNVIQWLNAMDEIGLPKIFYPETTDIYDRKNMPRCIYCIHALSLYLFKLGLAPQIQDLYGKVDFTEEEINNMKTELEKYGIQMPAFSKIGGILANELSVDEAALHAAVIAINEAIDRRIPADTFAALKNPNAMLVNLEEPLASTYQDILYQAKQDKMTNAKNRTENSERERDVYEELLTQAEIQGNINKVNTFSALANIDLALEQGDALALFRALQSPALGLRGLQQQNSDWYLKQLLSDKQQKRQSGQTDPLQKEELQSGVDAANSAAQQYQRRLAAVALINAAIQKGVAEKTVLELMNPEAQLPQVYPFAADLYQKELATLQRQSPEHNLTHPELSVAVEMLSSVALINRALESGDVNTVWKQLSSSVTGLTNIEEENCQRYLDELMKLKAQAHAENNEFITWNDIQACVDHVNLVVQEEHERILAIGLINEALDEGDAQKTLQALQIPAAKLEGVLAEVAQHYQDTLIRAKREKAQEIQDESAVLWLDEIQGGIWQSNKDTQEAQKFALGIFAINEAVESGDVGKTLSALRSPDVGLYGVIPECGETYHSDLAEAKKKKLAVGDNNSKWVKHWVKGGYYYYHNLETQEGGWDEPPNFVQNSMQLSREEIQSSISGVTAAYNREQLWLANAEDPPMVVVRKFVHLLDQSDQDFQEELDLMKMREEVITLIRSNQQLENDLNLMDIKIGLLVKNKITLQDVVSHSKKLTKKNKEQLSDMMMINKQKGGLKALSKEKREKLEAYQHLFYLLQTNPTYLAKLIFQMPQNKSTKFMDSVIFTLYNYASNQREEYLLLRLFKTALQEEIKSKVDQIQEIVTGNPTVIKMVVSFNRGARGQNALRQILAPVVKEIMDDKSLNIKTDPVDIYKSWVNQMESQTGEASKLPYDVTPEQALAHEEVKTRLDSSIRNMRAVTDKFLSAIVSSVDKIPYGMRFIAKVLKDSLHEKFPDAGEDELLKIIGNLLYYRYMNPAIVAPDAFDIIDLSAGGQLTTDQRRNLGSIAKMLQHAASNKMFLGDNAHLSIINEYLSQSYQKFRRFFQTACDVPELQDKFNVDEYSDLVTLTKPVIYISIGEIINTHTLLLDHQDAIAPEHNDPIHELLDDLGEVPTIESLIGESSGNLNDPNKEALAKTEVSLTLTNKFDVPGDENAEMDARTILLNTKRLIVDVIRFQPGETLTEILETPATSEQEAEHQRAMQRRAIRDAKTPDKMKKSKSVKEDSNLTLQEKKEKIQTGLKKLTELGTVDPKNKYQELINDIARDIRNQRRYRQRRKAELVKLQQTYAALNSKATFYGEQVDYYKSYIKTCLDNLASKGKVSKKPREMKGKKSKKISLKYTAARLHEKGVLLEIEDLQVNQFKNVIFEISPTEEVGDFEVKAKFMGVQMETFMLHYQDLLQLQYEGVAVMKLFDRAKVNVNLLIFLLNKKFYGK
# UniProt Q13131: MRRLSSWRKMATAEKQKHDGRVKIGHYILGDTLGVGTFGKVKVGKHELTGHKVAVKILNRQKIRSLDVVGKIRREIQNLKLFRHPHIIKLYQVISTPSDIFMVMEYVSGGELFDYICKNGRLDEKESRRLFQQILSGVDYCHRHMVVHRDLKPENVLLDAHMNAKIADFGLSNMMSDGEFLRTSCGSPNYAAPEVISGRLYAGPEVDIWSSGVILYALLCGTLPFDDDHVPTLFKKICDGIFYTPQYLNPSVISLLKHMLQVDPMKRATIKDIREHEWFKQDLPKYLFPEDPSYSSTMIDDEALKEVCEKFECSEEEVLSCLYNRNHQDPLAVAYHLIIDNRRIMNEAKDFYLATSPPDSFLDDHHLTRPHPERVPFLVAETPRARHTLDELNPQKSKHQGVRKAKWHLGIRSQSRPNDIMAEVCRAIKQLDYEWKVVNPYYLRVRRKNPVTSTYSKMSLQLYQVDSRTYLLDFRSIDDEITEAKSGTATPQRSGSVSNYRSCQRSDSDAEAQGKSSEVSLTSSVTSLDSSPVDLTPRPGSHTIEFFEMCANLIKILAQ
# UniProt Q96RR4: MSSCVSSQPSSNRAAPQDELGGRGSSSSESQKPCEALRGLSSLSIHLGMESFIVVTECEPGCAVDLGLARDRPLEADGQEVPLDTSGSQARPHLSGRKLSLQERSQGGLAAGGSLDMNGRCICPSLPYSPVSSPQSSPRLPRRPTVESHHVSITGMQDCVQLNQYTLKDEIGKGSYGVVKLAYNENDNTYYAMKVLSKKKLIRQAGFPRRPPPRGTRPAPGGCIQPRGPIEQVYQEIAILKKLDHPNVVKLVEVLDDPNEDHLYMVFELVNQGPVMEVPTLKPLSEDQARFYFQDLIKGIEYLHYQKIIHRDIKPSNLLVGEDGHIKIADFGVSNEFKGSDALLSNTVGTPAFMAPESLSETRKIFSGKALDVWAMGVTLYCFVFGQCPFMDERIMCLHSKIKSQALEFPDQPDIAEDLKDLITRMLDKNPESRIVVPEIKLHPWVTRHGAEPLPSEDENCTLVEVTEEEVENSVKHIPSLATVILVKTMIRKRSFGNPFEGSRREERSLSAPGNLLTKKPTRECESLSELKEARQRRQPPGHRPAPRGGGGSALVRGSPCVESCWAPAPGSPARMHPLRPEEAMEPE
# What was measured:
# [1] = target: endogenous IQGAP1 (IQ motif-containing GTPase-activating protein 1) (human (endogenous in HEK-293)) (UniProt P46940); assay: co-IP; endogenous IQGAP1 immunoprecipitated with anti-IQGAP1 polyclonal antibodies and protein A-Sepharose from lysates of transfected HEK-293 cells (50 mM Tris-HCl pH 7.4, 150 mM NaCl, 1% Triton X-100), 3 h at 4 °C; blot with anti-GFP; nonimmune rabbit serum as control
# [2] = target: GST-AMPKα1 (UniProt Q13131); assay: pull-down; [35S]methionine-labelled TNT products of IQGAP1 incubated with GST proteins for 3 h at 4 °C, glutathione-Sepharose, five washes with lysis buffer, SDS-PAGE and autoradiography; only the target purified
# [3] = target: GST-CaMKK2 (UniProt Q96RR4); assay: as above
# [4] = target: GST-AMPKα1 (UniProt Q13131); assay: pull-down; biotinylated-lysine-labelled TNT products of IQGAP1 incubated with GST proteins for 3 h at 4 °C, pulled down, blot with IRDye-conjugated streptavidin; only the target purified
# [5] = target: GST-CaMKK2 (UniProt Q96RR4); assay: as above
# [6] = target: GFP-CaMKK2 (GFP-tagged Ca2+/calmodulin-dependent protein kinase kinase 2) (UniProt Q96RR4); assay: co-IP; GFP-tagged proteins immunoprecipitated with GFP-Trap Agarose from lysates of transfected HEK-293 cells, 3 h; blot with anti-IQGAP1
binding [2],binding [3],Substance,also measured
binds,binds,IQGAP1 IQ domain (amino acids 717-916) (from UniProt P46940 717-916) (domain or fragment),
binds,binds,IQGAP1 N-terminal half (amino acids 2-863) (from UniProt P46940 2-863) (domain or fragment),

# More lines, now with the values behind:
Substance,binding [2],binding [3],also measured
GFP-CaMKK2 (GFP-tagged Ca2+/calmodulin-dependent protein kinase kinase 2) (from UniProt Q96RR4-3),,,binding [1]: binds
IQGAP1 C-terminal half (amino acids 864-1657) (from UniProt P46940 864-1657) (domain or fragment),no binding,no binding,
"IQGAP1Δ746-860, biotinylated-lysine-labelled TNT product (from UniProt P46940)",,,binding [4]: no binding; binding [5]: no binding
endogenous IQGAP1 (IQ motif-containing GTPase-activating protein 1) (from UniProt P46940 1-1657),,,binding [6]: binds
"full-length IQGAP1, [35S]methionine-labelled TNT product (from UniProt P46940 2-1657)",binds,binds,
"full-length IQGAP1, biotinylated-lysine-labelled TNT product (from UniProt P46940 2-1657)",,,binding [4]: binds; binding [5]: binds

# Results are given in words; binding and its absence hold for the method and conditions named. In cells and extracts the contact can be indirect. Binding calls can cover weak binding; strength is not graded here.
